In PubChem BioAssay AID1688 (National Center for Advancing Translational Sciences (NCATS), 2009):
Out of some 220,000 compounds screened, about 2,400 (1.1%) were called active. Inconclusive means that the source gave no clear call. Such entries were picked first, then a sample of the others. Calls follow the shape of the dose curve; as a rule, active = well fitted inhibition curve with a large enough effect; inconclusive = small, poorly fitted or top-dose-only effect, or effect the other way; inactive = no such curve, though single readings can be large or run the other way. A potency beside an inconclusive call is a rough fit, not a confirmed value. Square brackets hold non-standard residues; d marks the D form. Peptide text beside a SMILES is read from it. Orn = NCCC[CH](N)C(=O)O

assay: qHTS Multiplex Assay to Identify Dual Action Probes in a Cell Model of Huntington: Aggregate Formation (GFP); details: PC12 HttQ103-GFP aggregates, Acumen cytometry, 40 h; activity change, negative = inhibition: at 46.1 µM (top of the series) unless noted; also: nearly all actives have a fitted effect of over 60% in size
Outline: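 Aggregate formation scored by laser-scanning cytometer (488 excitation, 500–530 emission) in lysed PC12 cells expressing Q103-GFP after 100 nM tebufenozide induction; library tested in dose series, with ATPLite reagent added in the multiplex.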
% is scaled to controls: 0 for no effect and ±100 for the full control effect; potency is read from the fitted curve at half-maximal effect.

| SMILES | Potency | activity change, negative = inhibition |
| --- | --- | --- |
| COc1cc(S(=O)(=O)Nc2ccccc2)ccc1NC=O | inconclusive: 0.562 µM [inhibitor, full curve, poor fit] |  |
| Cn1c(SCc2cccc([N+](=O)[O-])c2)nc2c(c1=O)SCC2 | inconclusive: 11.2 µM [inhibitor, single point] |  |
| O=c1c2ccccc2nc(SCc2ccccc2)n1CC1CCCO1 (stereo not drawn) | inconclusive: 0.0891 µM [activator, full curve, poor fit] |  |
| CC(C)CC1NC(=O)C(CCCN)NC(=O)C(C(C)C)NC(=O)C2CCCN2C(=O)C(Cc2ccccc2)NC(=O)C(CC(C)C)NC(=O)C(CCCN)NC(=O)C(C(C)C)NC(=O)C2CCCN2C(=O)C(Cc2ccccc2)NC1=O (stereo not drawn) (cyclo(FPV[Orn]LFPV[Orn]L); configuration not given here) | inconclusive: 1 µM [inhibitor, full curve] |  |
| CC(C)(C)c1csc(NC(=O)c2ccc3nccnc3c2)n1 |  | inactive: -18.6% |
| Cc1ccc(CSc2ncn(-c3ccccc3)n2)cc1 |  | inactive: 3.9% |
| CN(C)c1cccc(C(=O)Nc2ccc(N3CCOCC3)cc2)c1 | inconclusive: 35.5 µM [activator, single point] |  |
| Cc1c(N=C2NC(=O)C(CC(=O)Nc3ccccc3)S2)c(=O)n(-c2ccccc2)n1C (stereo not drawn) |  | inactive: -5.12% |
| Cc1ccc(Cl)cc1NC(=S)NCCCSC1CCCCC1 | active: 22.4 µM |  |
| COc1cccc(N/C(SCc2cccc([N+](=O)[O-])c2)=C(/C#N)C(N)=O)c1 | inconclusive: 25.1 µM [inhibitor, single point] |  |
| COc1ccc(-c2nc3c(c(=O)[nH]c(=O)n3Cc3ccccc3)n2Cc2ccccc2)cc1 | inconclusive: 35.5 µM [inhibitor, single point] |  |
| Cc1ccc(S(=O)(=O)NCc2ccncc2)cc1 | active: 3.55 µM |  |
| C=CCN1CCc2c(cc(O)c(O)c2Cl)C(c2ccccc2)C1 (stereo not drawn) |  | inactive: 3.36% [at 9.22 µM] |
| C=CCc1ccc(OCCOCCOc2cccc3ccc(C)nc23)c(OC)c1 | inconclusive: 7.08 µM [inhibitor, partial curve] |  |
| CC12CCC(C/C1=N\N=C1\NC(=O)/C(=C\c3cccc(Br)c3)S1)C2(C)C (stereo not drawn) | inconclusive: 14.1 µM [inhibitor, single point] |  |
| CCN(c1cccc(C)c1)C(C(=O)Nc1ccc(OC)cc1)c1cc2c(cc1[N+](=O)[O-])OCO2 (stereo not drawn) | inconclusive: 0.562 µM [activator, full curve, poor fit] |  |
| C[C@@H]1CCC2[C@@H](C)[C@@H](O)O[C@@H]3O[C@@]4(C)CC[C@@H]1[C@@]23OO4 (stereo partly drawn) | inconclusive: 2 µM [inhibitor, partial curve, poor fit] |  |
| CCOC(=O)C1C(=O)C=C(c2cccs2)CC1c1ccccc1 (stereo not drawn) | inconclusive: 11.2 µM [inhibitor, single point] |  |
| O=C(Cc1c(C(=O)O)[nH]c2ccccc12)Nc1ccc2c(c1)OCO2 | inconclusive: 15.8 µM [activator, partial curve] |  |
| COc1ccc(C(=O)NC2CC(C)(C)Cc3occc32)cc1 (stereo not drawn) |  | inactive: 16% |
| Cc1ccc(C(=O)N/N=C\c2ccc([N+](=O)[O-])s2)cn1 | inconclusive: 5.62 µM [activator, single point] |  |
| CCN(CCCNC(=O)CCc1nc(-c2ccc(C)cc2)no1)c1cccc(C)c1 | inconclusive: 35.5 µM [inhibitor, single point] |  |

Part of the list above, tab-delimited.
SMILES	Potency	activity change, negative = inhibition
CN(C)c1cccc(C(=O)Nc2ccc(N3CCOCC3)cc2)c1	inconclusive: 35.5 µM [activator, single point]	
Cc1c(N=C2NC(=O)C(CC(=O)Nc3ccccc3)S2)c(=O)n(-c2ccccc2)n1C (stereo not drawn)		inactive: -5.12%
Cc1ccc(Cl)cc1NC(=S)NCCCSC1CCCCC1	active: 22.4 µM	
COc1cccc(N/C(SCc2cccc([N+](=O)[O-])c2)=C(/C#N)C(N)=O)c1	inconclusive: 25.1 µM [inhibitor, single point]	
COc1ccc(-c2nc3c(c(=O)[nH]c(=O)n3Cc3ccccc3)n2Cc2ccccc2)cc1	inconclusive: 35.5 µM [inhibitor, single point]	
Cc1ccc(S(=O)(=O)NCc2ccncc2)cc1	active: 3.55 µM	
C=CCN1CCc2c(cc(O)c(O)c2Cl)C(c2ccccc2)C1 (stereo not drawn)		inactive: 3.36% [at 9.22 µM]
C=CCc1ccc(OCCOCCOc2cccc3ccc(C)nc23)c(OC)c1	inconclusive: 7.08 µM [inhibitor, partial curve]	
CC12CCC(C/C1=N\N=C1\NC(=O)/C(=C\c3cccc(Br)c3)S1)C2(C)C (stereo not drawn)	inconclusive: 14.1 µM [inhibitor, single point]	
CCN(c1cccc(C)c1)C(C(=O)Nc1ccc(OC)cc1)c1cc2c(cc1[N+](=O)[O-])OCO2 (stereo not drawn)	inconclusive: 0.562 µM [activator, full curve, poor fit]	
C[C@@H]1CCC2[C@@H](C)[C@@H](O)O[C@@H]3O[C@@]4(C)CC[C@@H]1[C@@]23OO4 (stereo partly drawn)	inconclusive: 2 µM [inhibitor, partial curve, poor fit]	
CCOC(=O)C1C(=O)C=C(c2cccs2)CC1c1ccccc1 (stereo not drawn)	inconclusive: 11.2 µM [inhibitor, single point]	

(continued)

| SMILES | Potency | activity change, negative = inhibition |
| --- | --- | --- |
| COCC(=O)n1nc(-c2ccc(Cl)cc2)nc1NCc1ccc(F)cc1 | inconclusive: 8.91 µM [inhibitor, single point] |  |
| CCOc1ccc(C(=O)Nc2ccc3c(c2)OCO3)cc1OCC |  | inactive: -13.2% |
| CCNC(=O)O/N=C(\C)c1sc(-c2ccccc2)nc1C |  | inactive: 1.02% |
| O=C(NCc1ccccn1)c1cc(-c2ccc(-c3ccccc3)cc2)nc2ccccc12 | inconclusive: 5.62 µM [inhibitor, single point] |  |
| COc1cc(NC(=O)c2ccc3c(SCC(=O)O)c4c(nc3c2)CCCC4)cc(OC)c1OC |  | inactive: -6.82% |
| N#Cc1cc(N2CCOCC2)nc2ccccc12 | inconclusive: 3.55 µM [inhibitor, single point] |  |
| COc1ccc(NC(=O)CC2C(=O)N(CCc3ccccc3)C(=S)N2Cc2cccnc2)cc1 (stereo not drawn) | inconclusive: 35.5 µM [inhibitor, single point] |  |
| COc1ccccc1N1CCN(/N=C/C=C\c2ccccc2[N+](=O)[O-])CC1 |  | inactive: -24.3% |
| Cc1ccc(NC(=O)c2ccccc2NS(=O)(=O)c2ccc(F)cc2)cc1S(=O)(=O)N1CCCCC1 | active: 2.51 µM |  |
| CC(C)(C)C1CCC(=NOC(=O)c2ccc(F)cc2)CC1 (stereo not drawn) |  | inactive: 13.8% |
| O=C(CCS(=O)(=O)c1ccc(Cl)cc1)Nc1ccc(N2CCOCC2)cc1 |  | inactive: -5.12% [at 9.22 µM] |
| COc1ccc(OCc2ccc(C(=O)NN)cc2)cc1 | inconclusive: 3.16 µM [inhibitor, single point] |  |
| C=C(C)c1cccc(C(C)(C)NC(=O)NC2CCCC2)c1 | inconclusive: 1.26 µM [inhibitor, partial curve] |  |
| N#C/C(=C(/O)COC(=O)c1ccccc1O)c1nc2ccccc2s1 | inconclusive: 25.1 µM [inhibitor, single point] |  |
| S=C(NCCN1CCOCC1)Nc1ccc(Cl)cc1Cl | inconclusive: 15.8 µM [activator, single point] |  |
| CN=c1scc(-c2ccccc2F)n1/N=C/c1ccc(O)c(O)c1O |  | inactive: 2.77% |
| O=C(c1ccco1)N1CCN(c2c(-c3ccccc3)c3cc(Cl)ccc3[nH]c2=O)CC1 | inconclusive: 35.5 µM [inhibitor, single point] |  |
| COC(=O)[C@H]1[C@H]2C[C@@H]3c4[nH]c5ccccc5c4CCN3C[C@H]2C[C@@H](OC(=O)c2cc(OC)c(OC)c(OC)c2)[C@@H]1OC |  | inactive: -20.4% |
| Cc1ccc2nc(SCC(=O)N3CCOCC3)[nH]c2c1 |  | inactive: 2.86% |
| O=C(O)c1cccc(Nc2nc(Nc3ccccc3)nc(N3CCCC3)n2)c1 | inconclusive: 35.5 µM [inhibitor, single point] |  |
| O=C(C[n+]1cc(-c2ccccc2)n2c1CCC2)N1c2ccccc2Sc2ccccc21 |  | inactive: 6.2% |
